{"source": "PubChem BioAssay AID1671195 (Yale University, 2021)", "purpose": "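Knockdowns that increase or decrease uptake of fluorescent LDL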 (primary screen)", "cell system": "human Huh7 hepatoma cells", "reagent": "siRNA pool against human genes, 18 nM", "time to read-out": "about 2 to 2.5 days of knockdown, then 8 h LDL uptake", "treatment": "DiI-labelled LDL at 30 µg/ml for 8 h, in lipoprotein-deficient serum medium", "read-out": "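Fluorescent LDL signal imaged in cells, scaled to the plate median, robust z-score for each replicate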", "reading the numbers": "robust z-score: higher = more LDL uptake after knockdown", "rule for the call": "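a gene counts as active if at least two replicate z-scores exceed ±2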", "note": "The deposit covers about 22,000 reagents; shown is an unselected part. Of all reagents, about 1,510 (6.9%) were called active. 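Active includes knockdowns raising or lowering LDL uptake; positive z-scores mean more uptake, negative mean less.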 Reagent sequences are not shown."}
{"target":"DPYSL2 (dihydropyrimidinase like 2)","robust z-score, replicate 1":-0.335,"robust z-score, replicate 2":-0.581,"robust z-score, replicate 3":-0.355,"call":"inactive"}
{"target":"MCC (MCC regulator of Wnt signaling pathway)","robust z-score, replicate 1":-0.524,"robust z-score, replicate 2":-0.351,"robust z-score, replicate 3":-0.254,"call":"inactive"}
{"target":"MRO (maestro)","robust z-score, replicate 1":1.04,"robust z-score, replicate 2":0.864,"robust z-score, replicate 3":1.42,"call":"inactive"}
{"target":"LOC401861 (retired record)","robust z-score, replicate 1":-1.19,"robust z-score, replicate 2":-2.17,"robust z-score, replicate 3":-0.966,"call":"inactive"}
{"target":"TRAPPC14 (trafficking protein particle complex subunit 14)","robust z-score, replicate 1":0.65,"robust z-score, replicate 2":0.786,"robust z-score, replicate 3":0.571,"call":"inactive"}
{"target":"TSC22D3 (TSC22 domain family member 3)","robust z-score, replicate 1":0.405,"robust z-score, replicate 2":0.986,"robust z-score, replicate 3":0.421,"call":"inactive"}
{"target":"HERC2P9 (HERC2 pseudogene 9)","robust z-score, replicate 1":-0.181,"robust z-score, replicate 2":-0.00506,"robust z-score, replicate 3":-0.5,"call":"inactive"}
{"target":"NONO (non-POU domain containing octamer binding)","robust z-score, replicate 1":0.781,"robust z-score, replicate 2":-0.195,"robust z-score, replicate 3":1.01,"call":"inactive"}
{"target":"LOC440004 (retired record)","robust z-score, replicate 1":4.13,"robust z-score, replicate 2":3.99,"robust z-score, replicate 3":4.27,"call":"active"}
{"target":"PHKB (phosphorylase kinase regulatory subunit beta)","robust z-score, replicate 1":0.148,"robust z-score, replicate 2":-0.6,"robust z-score, replicate 3":0.0429,"call":"inactive"}
{"target":"NLRP4 (NLR family pyrin domain containing 4)","robust z-score, replicate 1":-0.256,"robust z-score, replicate 2":0.0585,"robust z-score, replicate 3":-0.3,"call":"inactive"}

In a second layout: entries from further up
DPYSL2 (dihydropyrimidinase like 2) → robust z-score, replicate 1: -0.335; robust z-score, replicate 2: -0.581; robust z-score, replicate 3: -0.355; call: inactive
MCC (MCC regulator of Wnt signaling pathway) → robust z-score, replicate 1: -0.524; robust z-score, replicate 2: -0.351; robust z-score, replicate 3: -0.254; call: inactive
MRO (maestro) → robust z-score, replicate 1: 1.04; robust z-score, replicate 2: 0.864; robust z-score, replicate 3: 1.42; call: inactive

The results go on:
{"target":"LOC401212 (retired record)","robust z-score, replicate 1":0.0108,"robust z-score, replicate 2":0.0567,"robust z-score, replicate 3":0.263,"call":"inactive"}
{"target":"BTF3L4 (basic transcription factor 3 like 4)","robust z-score, replicate 1":0.3,"robust z-score, replicate 2":-0.233,"robust z-score, replicate 3":0.386,"call":"inactive"}
{"target":"LOC441104 (retired record)","robust z-score, replicate 1":-0.17,"robust z-score, replicate 2":-0.306,"robust z-score, replicate 3":-0.68,"call":"inactive"}
{"target":"USP21 (ubiquitin specific peptidase 21)","robust z-score, replicate 1":1.78,"robust z-score, replicate 2":0.752,"robust z-score, replicate 3":2.8,"call":"inactive"}
{"target":"LOC388947 (retired record)","robust z-score, replicate 1":-0.426,"robust z-score, replicate 2":0.0542,"robust z-score, replicate 3":-0.264,"call":"inactive"}
{"target":"REXO1L1P (REXO1 like 1, pseudogene)","robust z-score, replicate 1":-0.489,"robust z-score, replicate 2":-0.898,"robust z-score, replicate 3":-0.542,"call":"inactive"}
{"target":"TUBA8 (tubulin alpha 8)","robust z-score, replicate 1":-0.337,"robust z-score, replicate 2":-0.863,"robust z-score, replicate 3":-0.547,"call":"inactive"}
{"target":"TUSC1 (tumor suppressor candidate 1)","robust z-score, replicate 1":-0.677,"robust z-score, replicate 2":-0.637,"robust z-score, replicate 3":-0.57,"call":"inactive"}
{"target":"AMER1 (APC membrane recruitment protein 1)","robust z-score, replicate 1":-1.27,"robust z-score, replicate 2":-0.4,"robust z-score, replicate 3":0.256,"call":"inactive"}
{"target":"SLC35F2","robust z-score, replicate 1":3.07,"robust z-score, replicate 2":4.04,"robust z-score, replicate 3":2.26,"call":"active"}
{"target":"COPG1 (coat protein complex I subunit gamma 1)","robust z-score, replicate 1":0.546,"robust z-score, replicate 2":-0.284,"robust z-score, replicate 3":-0.343,"call":"inactive"}
{"target":"FOXI2 (forkhead box I2)","robust z-score, replicate 1":-1.11,"robust z-score, replicate 2":-1.37,"robust z-score, replicate 3":-1.25,"call":"inactive"}
{"target":"ACTE1P (actin epsilon 1, pseudogene)","robust z-score, replicate 1":-0.688,"robust z-score, replicate 2":-1.07,"robust z-score, replicate 3":-1.48,"call":"inactive"}
